Values of other authors as cited in patent US8877163B2, “Cycloalkyl triamine pentacarboxylate as ligands for paramagnetic metal complexes” (Kaohsiung Medical University, priority 2006, dated 2014).
At least one structure is not confirmed: it was looked up by name or label, or the drawing left a doubt.

Key:
[1] = cited from earlier work
[2] = cited from earlier work; remark: listed apart in the source

In the case of `O=C([O-])CN1CCN(CCO[C@@H]2O[C@H](CO)[C@H](O)[C@H](O)[C@H]2O)CCN(CC(=O)[O-])CCN(CC(=O)[O-])CC1.[Gd+3]` [Egad, 4,7,10-tri(aceticacid)-1-(2-β-galactopyranosylethoxy)-1,4,7,10-tetraazacyclododecane gadolinium (III)], the “number of inner space water molecules q” value [1] is given as 0.7.

For `CC1(N(CC(=O)[O-])CC(=O)[O-])CN(CC(=O)[O-])CCN(CC(=O)[O-])C1.[Gd+3]` [[Gd(AAZTA)]^−], the “inner-sphere water residence lifetime τm” value [2] is given as 90 ns, the “molecular rotational correlation time τr” value [2] is given as 74 ps and the “number of inner space water molecules q” value [1] is given as 2.

For `CNC[C@H](O)[C@@H](O)[C@H](O)[C@H](O)CO.CNC[C@H](O)[C@@H](O)[C@H](O)[C@H](O)CO.O=C([O-])CN(CCN(CC(=O)[O-])CC(=O)O)CCN(CC(=O)O)C(COCc1ccccc1)C(=O)[O-].[Gd+3]` (centres unmarked) [[Gd(BOPTA)]^2−, gadobenate dimeglumine], the “inner-sphere water residence lifetime τm” value [2] is listed as 289 ns.
